This passage reports intracellular bacterial bioluminescence results from the supplement of paper PMC12578635.

Some of the results follow. Rule as the data show it: active = 150% or more and inactive = the rest. Single values are uncertain, as repeats are few or missing.

For this assay, the system named is Staphylococcus aureus JE2-lux inside RAW 264.7 macrophages. Put plainly: intracellular bacterial bioluminescence relative to DMSO vehicle; higher = higher intracellular bacterial metabolic activity. Particulars: 10 µM; treatment time 4 h; gentamicin 50 µg/ml.
As to `COc1ccc(/C=N/Nc2ncnc3[nH]cnc23)c(OC)c1`, the intracellular bacterial bioluminescence was inactive: 102%. The figure for `O=C(O)c1cc(Nc2nc(-c3ccccc3)c3cc(Br)ccc3n2)ccc1O` is inactive: 98%; for `Cc1oc(-c2ccno2)cc1S(=O)(=O)NCC1CCCO1` (stereo not drawn) it is inactive: 112%.

As to `O=C(CSc1nncc(=O)[nH]1)Nc1cccc(Cl)c1Cl`, the intracellular bacterial bioluminescence was inactive: 105%. To `CCCn1cnc2cc(-c3noc(CNC(=O)Cc4ccc(Cl)cc4)n3)ccc21` belongs inactive: 25.8%. As to `CCc1ccc(N2C(=O)CC(Sc3ncccc3C(=O)O)C2=O)cc1` (stereo not drawn), the intracellular bacterial bioluminescence was inactive: 108%. For the compound `O=c1[nH]c2ccc(S(=O)(=O)N3CCc4nc(N5CCCCC5)ncc4C3)cc2o1`, the intracellular bacterial bioluminescence is inactive: 83.2%. The figure for `O=C(Cn1cc(C(=O)c2ccccc2)c(=O)c2cc3c(cc21)OCCO3)Nc1ccc2c(c1)OCO2` is inactive: 117%; for `COc1ccc(Cl)c2sc(N(Cc3cccnc3)C(=O)c3c(F)cccc3F)nc12` it is inactive: 29.6%. To `O=C(O)c1ccccc1SC1CC(=O)N(c2ccc([N+](=O)[O-])cc2)C1=O` (stereo not drawn) belongs inactive: 111%; to `N=c1oc2c3c4c(cc2cc1C(=O)Nc1cccc(Cl)c1Cl)CCCN4CCC3`, inactive: 121%; to `CCc1ccc2nc(NCCCNC(=O)C3CCCO3)c(C#N)cc2c1` (stereo not drawn), inactive: 125%.

On to `COc1ccccc1C1Nc2ccc(Br)cc2[C@H]2OCCC[C@@H]12` (stereo partly drawn), for which the intracellular bacterial bioluminescence is inactive: 49.2%. With `O=C1NC2=C(C(=O)N(CC3CCCO3)C2)C(c2ccccc2)N1` (stereo not drawn), the intracellular bacterial bioluminescence was inactive: 107%. On to `Cc1ccc(CNC(=O)CSc2nc(=O)[nH]cc2C)cc1`, for which the intracellular bacterial bioluminescence was inactive: 111%. On to `CC1(C)CC(=O)C2=C(C1)OC(N)=C(C#N)C2c1cccs1` (stereo not drawn), for which the intracellular bacterial bioluminescence was inactive: 93.8%. To `COc1ccc(-c2cc(=O)c3ccc(NC(C)=O)cc3o2)cc1` belongs inactive: 128%.

As to `Cc1nc2ccc3nc(NC(=O)/C=C/c4ccccc4Cl)sc3c2s1`, the intracellular bacterial bioluminescence was inactive: 118%. To `O=C(Nc1nc2c(cc3c4c(cccc42)CC3)s1)c1cc2ccccc2oc1=O` belongs inactive: 108%; to `CCOC(=O)C1CCCN(C(=O)C(=O)c2c(C)n(C)c3ccccc23)C1` (stereo not drawn), inactive: 82.8%. To `CC1CCN(C(=O)Cn2c3c(c(=O)n4ncnc24)CCC3)CC1` belongs inactive: 129%; to `Cc1ccc(C)c(N(CC(=O)NCCc2ccccc2)C(=O)c2csnn2)c1`, inactive: 63.4%; to `CC(C)NC(=O)Cn1c2c(c(=O)n3ncnc13)CCC2`, inactive: 104%.

`CSc1nc2ccc3nc(NC(=O)c4ccc(C#N)cc4)sc3c2s1`: the intracellular bacterial bioluminescence is inactive: 117%. To `COc1ccccc1N1CCN(c2nn3cnnc3c3ccccc23)CC1` belongs inactive: 94.3%; to `Cc1ccc(S(=O)(=O)Nc2ccc3nnc(-c4ccccc4)n3n2)c(C)c1`, inactive: 106%; to `Fc1cccc2sc(NCc3ccccc3)nc12`, inactive: 52.5%.

Turning to `COc1ccc(CCNC(=O)c2cnc3c(C)cccc3c2O)cc1OC`, the intracellular bacterial bioluminescence was inactive: 86.8%.

`Cc1cccnc1NC(=O)NC1CC(=O)N(c2ccc(Cl)cc2)C1` (stereo not drawn): the intracellular bacterial bioluminescence was inactive: 97.6%. `COc1ccc(-c2noc(N3CCC(C(=O)Nc4cccc(C)c4C)CC3)n2)cc1`: the intracellular bacterial bioluminescence is inactive: 104%. The figure for `Cc1ccc2cc(CCNC(=O)c3ccc(Br)o3)c(=O)[nH]c2c1C` is inactive: 99.1%; for `Cc1ccc(-n2nc3c(c2NC(=O)c2ccc(OC(C)C)cc2)CS(=O)C3)cc1` (stereo not drawn) it is inactive: 108%. The figure for `CCCN1CCC2(CC1)NC(=O)N(CC(=O)NCc1ccco1)C2=O` is inactive: 105%. The figure for `O=C(NCc1ccccc1)c1cnc2ccccc2c1O` is inactive: 97.9%; for `Cc1cc2cc(CCNC(=O)C(C)Oc3ccccc3)c(=O)[nH]c2cc1C` (stereo not drawn) it is inactive: 91.5%. Take `COc1ccc2o/c(=N\c3sc4c(c3C(N)=O)CCCC4)c(C(N)=O)cc2c1`: the intracellular bacterial bioluminescence was inactive: 97.2%. To `COc1ccc(Cn2c(C)cn3c4c(=O)n(CCCO)c(=O)n(C)c4nc23)cc1` belongs inactive: 92.3%; to `O=C(Cn1cnc2c(cnn2-c2cccc(Cl)c2)c1=O)OCc1ccccc1`, inactive: 93.7%; to `Cc1ccccc1OCC(=O)Nc1ccccc1SCc1nnc(-c2ccccc2)o1`, inactive: 34.1%. To `COCCN1C(=O)C2C(c3ccccc3O)NN(Cc3ccccc3)C2C1=O` (stereo not drawn) belongs inactive: 98.8%; to `C=CCN1CC(C(=O)Nc2ccc3c(C)cc(C)nc3n2)CC1=O` (stereo not drawn), inactive: 109%; to `CN1/C(=C(\C#N)C(=O)c2ccc(Cl)s2)Nc2ccccc21`, inactive: 75.2%. The figure for `Cc1cccn2c(=O)c(/C=C(\C#N)C(N)=O)c(Oc3ccc(Cl)cc3)nc12` is inactive: 81.4%; for `CCOC(=O)CSc1ccc2nnc(-c3cccs3)n2n1` it is inactive: 120%. In the case of `Cc1cc(NC(=O)CCCN2C(=O)c3cccc4cccc(c34)C2=O)n(-c2ccccc2)n1`, the intracellular bacterial bioluminescence was inactive: 56%. To `Cc1ccc2oc(=O)c(-c3nc4ccc([N+](=O)[O-])cc4[nH]3)cc2c1` belongs inactive: 107%; to `COc1ccc2nc(NC(=O)Nc3ccc(C)cc3Cl)sc2c1`, inactive: 102%.

Consider `Cc1cc(C)c2cc(C#N)c(N3CCCN(C(=O)NCc4ccccc4)CC3)nc2c1`, for which the intracellular bacterial bioluminescence is inactive: 118%. With `COc1ccc(C2CC(c3cccc(NS(C)(=O)=O)c3)=NN2S(=O)(=O)c2ccc(C)cc2)cc1` (stereo not drawn), the intracellular bacterial bioluminescence is inactive: 52.3%. To `Cc1oc2ncnc(OCC(=O)NCC3CCCO3)c2c1C` (stereo not drawn) belongs inactive: 66%. The figure for `COc1ccc(-c2nc3cc(C)ccn3c2NC(=O)CCc2ccccc2)cc1` is inactive: 126%; for `CCOCCCNC(=O)CCn1cnc2c(-c3ccc(C)cc3)noc2c1=O` it is inactive: 67.3%.

For the compound `O=C(CC1Nc2ccccc2NC1=O)Nc1cc(Cl)cc(Cl)c1` (stereo not drawn), the intracellular bacterial bioluminescence was inactive: 95.9%. The figure for `O=C1CC(N2CCN(Cc3ccccc3)CC2)C(=O)N1` (stereo not drawn) is inactive: 101%; for `C=CCn1/c(=N/C(=O)c2cc(=O)c3ccccc3o2)sc2cccc(OC)c21` it is inactive: 140%; for `O=C1NC(=S)S/C1=C\c1nc2ccccc2[nH]1` it is inactive: 106%. To `COc1ccc2nc(NCCCNC(=S)Nc3cccc(Cl)c3)c(C#N)cc2c1` belongs inactive: 72.5%; to `Cc1cc(C)nc(-n2[nH]c3nccc(-c4ccc5c(c4)OCO5)c3c2=O)n1`, inactive: 136%; to `COc1cc(NC(=O)Cn2c(=O)n3nc(-c4ccc(C)cc4)nc3c3ccccc32)cc(OC)c1`, inactive: 76.2%. The figure for `COc1ccc(C(=O)N(Cc2ccc(Cl)cc2)c2nc3[nH]c(C)c(C)c(=O)n3n2)cc1` is inactive: 86.5%; for `Cc1ccc(-c2nnc3ccccc3c2C(=O)Nc2cc(C)ccn2)cc1` it is inactive: 99%.

`Cc1ccc(Cn2c(=O)c3ccccc3n3c(=S)[nH]nc23)cc1`: the intracellular bacterial bioluminescence was inactive: 107%. As to `COc1cccc(C(=O)Nc2nc3ccc([N+](=O)[O-])cc3s2)c1OC`, the intracellular bacterial bioluminescence was inactive: 87.3%. On to `Cn1c2c(c(=O)n(C)c1=O)C(c1ccncc1)C1=C(CCCC1=O)N2` (stereo not drawn), for which the intracellular bacterial bioluminescence is inactive: 119%. Take `Cc1ccc(Nc2c(C(=O)NC3CCCC3)cnc3c2c(C)nn3C)cc1`: the intracellular bacterial bioluminescence is inactive: 98.8%.

For the compound `O=C(Nc1ccc2c(c1)C(=O)NC2=O)c1cccc(C(F)(F)F)c1`, the intracellular bacterial bioluminescence is inactive: 128%. `O=C(CC1Nc2cccc3cccc(c23)NC1=O)Nc1ccc(F)cc1` (stereo not drawn): the intracellular bacterial bioluminescence is inactive: 94.7%. On to `CCCCN1C(=O)C(C#N)=C(C)/C(=C/Nc2ccccc2C(=O)O)C1=O`, for which the intracellular bacterial bioluminescence was inactive: 92.8%. The figure for `COc1ccc(N2CCCS2(=O)=O)cc1NC(=O)c1cccc(C(F)(F)F)c1` is inactive: 98%; for `CCc1ccc(-c2cc(C(=O)N/N=C(\C)c3ccncc3)[nH]n2)cc1` it is active: 177%; for `O=[N+]([O-])c1ccc2oc(SCc3nc4ccccn4c3Br)nc2c1` it is inactive: 60.2%. As to `Nc1c(C(=O)Nc2ccc(Cl)c(Cl)c2)c2ccccn2c1C(=O)c1cccs1`, the intracellular bacterial bioluminescence was inactive: 56.6%. To `CCCN1CCN(c2nn3nnnc3c3ccccc23)CC1` belongs active: 179%; to `Cc1cc(N2CCN(c3ccc(O)cc3)CC2)nc(-n2nc(C)cc2C)n1`, inactive: 52.9%. The figure for `CCOC(=O)C1CCN(c2nn3c(NC(C)(C)C)c(-c4cccc(F)c4)nc3s2)CC1` is inactive: 127%.

As to `Cc1cc(N2C(=O)c3ccccc3C2C(=O)NCCC(C)C)ccc1Br` (stereo not drawn), the intracellular bacterial bioluminescence is inactive: 124%. Consider `CCCOc1ccc(Oc2nc(C)nc3sc(C(=O)OCC)c(C)c23)cc1`, for which the intracellular bacterial bioluminescence was inactive: 91%. The figure for `O=c1c2ccccc2nc2c3ccccc3c(NCCCO)nn12` is inactive: 112%; for `O=C(CC1(O)C(=O)Nc2ccc(Br)cc21)c1ccccn1` (stereo not drawn) it is inactive: 104%. To `Cc1ccc(NC(=O)N(Cc2ccco2)Cc2cc3cccc(C)c3nc2Cl)cc1` belongs inactive: 95.7%; to `Cc1cccn2cc(-c3ccc(NC(=O)c4ccco4)cc3)nc12`, inactive: 82%; to `O=C(NCc1cccnc1)C(=O)NCC1OCCN1C(=O)c1ccc(Cl)cc1` (stereo not drawn), inactive: 85.4%.

Turning to `O=c1[nH]c2c(s1)C(c1ccc(O)cc1)C1C3CCC(C3)C1S2` (stereo not drawn), the intracellular bacterial bioluminescence is inactive: 134%. To `Cn1c(=O)n(C)c2cc(NC(=O)c3ncoc3-c3ccc(F)cc3)ccc21` belongs inactive: 98.5%; to `Nc1c(C(=O)Nc2ccc(F)cc2)sc2nc3cc4c(cc3cc12)OCO4`, inactive: 110%. The figure for `O=C(Cn1c2ccccc2n2c(=O)cc(-c3ccccc3)nc12)Nc1ccccc1C(F)(F)F` is inactive: 103%; for `Cc1nn2c(C(F)(F)F)cc(-c3ccccn3)nc2c1-c1ccccc1` it is inactive: 74.7%; for `CCOc1ccccc1NC(=O)c1cnc2sccn2c1=O` it is inactive: 116%. In the case of `COc1ccc(CCN2CCCn3c2nc2c3c(=O)[nH]c(=O)n2C)cc1OC`, the intracellular bacterial bioluminescence was inactive: 82.2%. In the case of `O=C(O)c1ccc(CN2C(=O)CSC2=O)cc1`, the intracellular bacterial bioluminescence was inactive: 115%. The figure for `O=c1/c(=C/c2cccc([N+](=O)[O-])c2)sc2nc(-c3ccncc3)nn12` is inactive: 52.6%; for `COc1ccc2nc(CN3CCC(NC(C)=O)(c4ccccc4F)CC3)ccc2c1` it is inactive: 89.7%; for `COc1ccc(NC(=S)NCCNc2nc3cc4c(cc3cc2C#N)OCO4)c(OC)c1` it is inactive: 100%.
